In PubChem BioAssay AID328 (DTP/NCI, 2004):
The list shows only some results of the screen, not a fair sample: it gathers tests that were run many times, whatever their T/C, doses with no T/C, and many T/C values between a quarter and a half above the control. Other doses and runs of a compound stand elsewhere. T/C gives the treated animals as a percentage of the vehicle group. Some entries give survivors of the animals treated and no T/C: the source holds a T/C of zero for them, seemingly a mark for toxic or unscored doses. Some doses without a T/C left all or most animals alive at the check, yet need not have been tolerated: survival well below the control is almost never listed, so the zero probably covers shortened survival too. Survivors were counted at the toxicity check, usually on the fifth day, unless a day is given; later deaths do not show. Schedule codes are those of the source, taken here to give the interval after Q, in days (D) or hours (H), and the number of doses after X. Where survival is the endpoint, this PubChem deposit counts one and a half times the control or more as active, and values a quarter to a half above the control carry no call in these data; other NCI protocols may use other cut-offs. Some T/C values carry the count of animals alive at the toxicity check (mostly the fifth day); where none is given, no animal had died by that day. Some entries were tested several times; the values are given in rising order.

Test system: BDF1 mice, P388 leukemia ip, median survival T/C
Test: NCI In Vivo Anticancer Drug Screen. Data for tumor model P388 Leukemia (intraperitoneal) in B6D2F1 (BDF1) mice
Conditions: T/C endpoint: median survival time, higher T/C = longer survival
Procedure, shortened: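 T/C = treated-group survival ÷ vehicle-control survival; tumour transplanted into mice before dosing.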

[1] = dose: 50.0 mg/kg/injection, schedule: Q01DX009 (ip), vehicle: Klucel (hydroxypropylcellulose) (HPC)
[2] = dose: 100.0 mg/kg/injection, schedule: Q01DX009 (ip), vehicle: saline

## O=C(CCl)c1ccc(O)c(O)c1
dose: 18.0 mg/kg/injection, schedule: Q04DX003 (ip), vehicle: saline with Tween-80
  survivor count: 5 of 6
dose: 25.0 mg/kg/injection, schedule: Q01DX009 (ip), vehicle: Klucel (hydroxypropylcellulose) (HPC)
  T/C: 126 and 135 % of control [5 of 6 alive]
[1]
  T/C: 138 % of control
  survivor count: 0 of 6
dose: 60.0 mg/kg/injection, schedule: Q01DX001 (ip), vehicle: saline
  T/C: 136 % of control [5 of 6 alive]
dose: 90.0 mg/kg/injection, schedule: Q01DX001 (ip), vehicle: saline
  T/C: 131 % of control
dose: 100.0 mg/kg/injection, schedule: Q01DX009 (ip), vehicle: Klucel (hydroxypropylcellulose) (HPC)
  survivor count: 1 of 6
dose: 150.0 mg/kg/injection, schedule: Q01DX009 (ip), vehicle: Klucel (hydroxypropylcellulose) (HPC)
  survivor count: 0 of 6

## O=S(=O)([O-])[O-].OCCNCCNCC[OH2+].OCCNCCNCC[OH2+].[Cu+2]
dose: 50.0 mg/kg/injection, schedule: Q01DX009 (ip), vehicle: saline
  survivor count: 3 of 6
[2]
  survivor count: 0 of 6
dose: 200.0 mg/kg/injection, schedule: Q01DX009 (ip), vehicle: saline
  survivor count: 0 of 6

## FC(F)(F)c1nc2nc(Cl)c(Cl)nc2[nH]1
dose: 40.0 mg/kg/injection, schedule: Q01DX009 (ip), vehicle: other
  T/C: 125 and 136 % of control
dose: 60.0 mg/kg/injection, schedule: Q01DX009 (ip), vehicle: other
  survivor count: 4 of 6
dose: 66.0 mg/kg/injection, schedule: Q04DX003 (ip), vehicle: other
  T/C: 136 % of control
dose: 80.0 mg/kg/injection, schedule: Q01DX009 (ip), vehicle: other
  survivor count: 0 of 6
dose: 150.0 mg/kg/injection, schedule: Q04DX003 (ip), vehicle: other
  survivor count: 2 of 6

## OC(C#CC(O)c1ccccc1)c1ccccc1 (stereo unspecified)
dose: 400.0 mg/kg/injection, schedule: Q04DX003 (ip), vehicle: saline
  survivor count: 5 of 6

## O=c1[nH]cc(CCc2ccccc2)c(=O)[nH]1
dose: 200.0 mg/kg/injection, schedule: Q01DX001 (ip), vehicle: Klucel (hydroxypropylcellulose) (HPC)
  survivor count: 6 of 6
dose: 400.0 mg/kg/injection, schedule: Q04DX003 (ip), vehicle: Klucel (hydroxypropylcellulose) (HPC)
  survivor count: 6 of 6

## COc1cc(-c2ccc(N=Nc3c(O)ccc4ccccc34)c(OC)c2)ccc1N=Nc1ccc2c(S(=O)(=O)O)cc(S(=O)(=O)O)c(N)c2c1O
[2]
  T/C: 127 % of control [5 of 6 alive]

## N#CC(C#N)=C1SCS1
dose: 12.5 mg/kg/injection, schedule: Q01DX009 (ip), vehicle: saline with Tween-80
  survivor count: 3 of 3

## CC(=O)OCCC/C(=C/c1cc2ccccc2c2ccccc12)[N+](=O)[O-]
dose: 400.0 mg/kg/injection, schedule: Q01DX009 (ip), vehicle: Klucel (hydroxypropylcellulose) (HPC)
  survivor count: 2 of 6

## Cn1c2ccccc2c(=S)c2ccccc21
dose: 400.0 mg/kg/injection, schedule: Q01DX001 (ip), vehicle: saline with Tween-80
  survivor count: 6 of 6

## Cc1ccc(NO)c(C)c1
dose: 200.0 mg/kg/injection, schedule: Q01DX005 (ip), vehicle: saline with Tween-80
  survivor count: 1 of 6

## BrCC1(CBr)CCCCC1
dose: 100.0 mg/kg/injection, schedule: Q04DX002 (ip), vehicle: saline with Tween-80
  survivor count: 5 of 6
dose: 200.0 mg/kg/injection, schedule: Q04DX002 (ip), vehicle: saline with Tween-80
  survivor count: 1 of 6
dose: 400.0 mg/kg/injection, schedule: Q04DX002 (ip), vehicle: saline with Tween-80
  survivor count: 0 of 6

## CCCCOc1ccc(NC(N)=Nc2ccc(Cl)cc2)cc1
dose: 6.25 mg/kg/injection, schedule: Q01DX010 (ip), vehicle: carboxymethylcellulose (CMC)
  survivor count: 6 of 6
dose: 100.0 mg/kg/injection, schedule: Q01DX010 (ip), vehicle: carboxymethylcellulose (CMC)
  survivor count: 0 of 6
dose: 100.0 mg/kg/injection, schedule: Q04DX003 (ip), vehicle: saline with Tween-80
  survivor count: 0 of 6
dose: 200.0 mg/kg/injection, schedule: Q01DX010 (ip), vehicle: carboxymethylcellulose (CMC)
  survivor count: 0 of 6
